From the supplement of paper PMC4749390
Structures can show the parent of a compound that is named as a salt. This is one part of the list. This data set is noisy: repeats of one test often differ as much as different tests do.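 Wild-type human LRH-1, a heavily sumoylated nuclear receptor, is tetracycline-inducible in stable JEG3 cells. RT-qPCR measured SUMO-sensitive APOC3 and MUC1 transcripts, which rise with SUMO-less LRH-1 or UBC9 knockdown, versus TBP and DMSO controls. Robust Z-scores beyond ±2 flagged primary hits, followed by toxicity and TBP filtering.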

What follows are compounds tested on JEG3 expressing hLRH-1 (assay: APOC3 transcript change (ddCt vs TBP and DMSO), Z-score over library; higher = higher APOC3 expression). Conditions: 10 µM; time (hr): 24.

Compound	APOC3 transcript change (Z-score)
CN(C)C(=S)SSC(=S)N(C)C [thiram]	-2.13
CC(C)C[C@H](CN)CC(=O)O [pregabalin]	-0.138
CCC(C)(C)O [amylene hydrate]	-0.71
CC(C)(C)NCC(O)c1ccccc1Cl (stereo unspecified) [tulobuterol]	-0.491
COc1ccc(C(=O)N2CCCC2=O)cc1 [Aniracetam]	-1.06
CC(C)N(CCC(C(N)=O)(c1ccccc1)c1ccccn1)C(C)C (stereo unspecified) [Disopyramide phosphate]	-1.06
OC[C@@H](O)[C@H]1O[C@@H]2O[C@H](C(Cl)(Cl)Cl)O[C@@H]2[C@H]1O [chloralose]	-0.675
COc1ccc(O)c(C(C)(C)C)c1 [butylated hydroxyanisole]	-0.184
CC(Cc1ccc(O)cc1)NCC(O)c1cc(O)cc(O)c1 (stereo unspecified) [fenoterol hydrobromide]	0.155
CC[C@H]1C2CC3[C@@H]4N(C)c5ccccc5[C@]45C[C@@H](C2C5O)N3[C@@H]1O (stereo partly specified) [ajmaline]	0.632
CNC(C)[C@H](O)c1ccccc1 (stereo partly specified) [ephedrine (1r,2s) hydrochloride]	0.179
Nc1ccc([As](=O)(O)O)cc1 [arsanilic acid]	-0.077
CCn1cc(C(=O)O)c(=O)c2cc3c(cc21)OCO3 [oxolinic acid]	0.49
CN1C[C@H](C(=O)N[C@]2(C)O[C@@]3(O)C4CCCN4C(=O)[C@H](Cc4ccccc4)N3C2=O)C=C2c3cccc4[nH]cc(c34)C[C@H]21 (stereo partly specified) [ergotamine tartrate]	0.523
[N-]=[N+]=CC(=O)OCC(N)C(=O)O (stereo unspecified) [azaserine]	1.05
COc1cccc([C@]2(O)CCCC[C@H]2CN(C)C)c1 [tramadol hydrochloride]	-0.387
CNC(C)C(O)c1ccccc1 (stereo unspecified) [racephedrine hydrochloride]	0.191
C=CCC1(C(C)CCC)C(=O)N=C(S)NC1=O (stereo unspecified) [thiamylal sodium]	0.0976
CCC(=O)O[C@H]1CCC2C3CCC4=CC(=O)CC[C@]4(C)C3CC[C@@]21C (stereo partly specified) [testosterone propionate]	0.88
C[N+]1([O-])C2CCC1CC(OC(=O)C(CO)c1ccccc1)C2 (stereo unspecified) [atropine oxide]	-0.547
O=C(OC1CC2CCC(C1)[N+]21CCCC1)C(O)(c1ccccc1)c1ccccc1 (stereo unspecified) [trospium chloride]	0.34
O=[N+]([O-])C(Br)(CO)CO [bronopol]	-1.2
C[C@@H](CO)NC(=O)[C@@H]1C=C2c3cccc4[nH]cc(c34)C[C@H]2N(C)C1 [ergonovine maleate]	-0.074
Clc1ccc(C(OCCN2CCCCC2)c2ccccc2)cc1 (stereo unspecified) [cloperastine hydrochloride]	0.44
CCOP(=S)(OCC)Oc1cc(C)nc(C(C)C)n1 [diazinon]	0.353
CC[C@@H](C(=O)[C@@H](C)[C@@H](O)[C@H](C)[C@@H]1O[C@@H]([C@@H](CC)C(=O)O)CC[C@@H]1C)[C@H]1OC2(C=C[C@@H](O)[C@]3(CC[C@@](C)([C@H]4CC[C@](O)(CC)[C@H](C)O4)O3)O2)[C@H](C)C[C@@H]1C (stereo partly specified) [salinomycin, sodium]	-5.8

Random excerpt: 2 records from the list
Compound	APOC3 transcript change (Z-score)
C[N+]1([O-])C2CCC1CC(OC(=O)C(CO)c1ccccc1)C2 (stereo unspecified) [atropine oxide]	-0.547
Nc1ccc([As](=O)(O)O)cc1 [arsanilic acid]	-0.077

Carrying on:

Compound	APOC3 transcript change (Z-score)
CC(CC(C(N)=O)(c1ccccc1)c1ccccc1)N(C)C (stereo unspecified) [aminopentamide sulfate]	0.411
Oc1ccc(Cl)cc1Cc1cc(Cl)ccc1O [dichlorophene]	-1
NC(=O)CN1CCCC1=O [piracetam]	-0.0264
NP(N)(=O)NC(=O)c1ccc(F)cc1 [flurofamide]	0.0249
Oc1ccc(Cl)cc1 [parachlorophenol]	0.901
NC(=O)CS(=O)C(c1ccccc1)c1ccccc1 (stereo unspecified) [modafinil]	-0.447
CC1(C)C(C=C(Cl)Cl)C1C(=O)OCc1cccc(Oc2ccccc2)c1 (stereo unspecified) [permethrin]	0.446
CCN1C[C@]2(COC)[C@H](O)C[C@H](OC)[C@@]34[C@@H]5C[C@@]6(O)[C@H](OC(=O)c7ccccc7)[C@@H]5[C@@](OC(C)=O)([C@@H]([C@H](OC)[C@H]23)[C@@H]14)[C@@H](O)[C@@H]6OC [aconitine]	0.139
COc1cc2c(c(OC)c1OC)-c1ccc(OC)c(=O)cc1[C@@H](NC(C)=O)CC2 [colchicine]	-4.44
C[C@]12CC[C@@H]3c4ccc(OC(=O)N(CCCl)CCCl)cc4CC[C@H]3[C@@H]1CC[C@@H]2O [estramustine]	0.861
CCC(COC(=O)c1cc(OC)c(OC)c(OC)c1)(c1ccccc1)N(C)C (stereo unspecified) [trimebutine maleate]	0.428
C[C@@H]1O[C@@H](O[C@H]2C[C@@H](O)[C@]3(CO)[C@H]4[C@H](O)C[C@]5(C)[C@@H](C6=CC(=O)OC6)CC[C@]5(O)[C@@H]4CC[C@]3(O)C2)[C@H](O)[C@H](O)[C@H]1O [ouabain]	-5.14
C#C[C@@H]1CC2C3CCC4=C[C@@H](OC(C)=O)CCC4C3CC[C@]2(C)[C@H]1OC(C)=O (stereo partly specified) [ethynodiol diacetate]	-0.163
C=C[C@H]1CN2CC[C@H]1C[C@@H]2[C@H](O)c1ccnc2ccccc12 [cinchonine]	-0.185
O=c1c2ccccc2[se]n1-c1ccccc1 [ebselen]	1.16
Cc1cccc(C)c1NC1=NCCCS1 [Xylazine hydrochloride]	1.2
NCC(O)c1ccc(O)cc1 (racemic) [(±)-Octopamine hydrochloride]	0.866
N=C1NC(=O)N2CC12 (stereo unspecified) [imexon]	-1.18
CC[C@@H](c1cccc(O)c1)[C@@H](C)CN(C)C [tapentadol hydrochloride]	-0.00785
C=C(C)C1CNC(C(=O)O)C1CC(=O)O (stereo unspecified) [kainic acid]	-0.113
CNC(=O)Oc1ccc2c(c1)[C@]1(C)CCN(C)[C@@H]1N2C [(-)-Physostigmine]	-0.0668
COC(=O)C1=CCCN(C)C1 [Arecoline hydrobromide]	0.0643
CCN(C(C)=O)c1cccc(-c2ccnc3c(C#N)cnn23)c1 [zaleplon]	-0.307
C[N+]1(C)C2CC(OC(=O)[C@@H](CO)c3ccccc3)CC1C1OC12 (stereo in doubt) [methscopolamine bromide]	-0.493
CC(C)(C)NCC(O)c1cc(Cl)c(N)c(Cl)c1 (stereo unspecified) [clenbuterol hydrochloride]	0.239

Reformatted as comma-separated lines: entries from further up.
Compound,APOC3 transcript change (Z-score)
Cc1cccc(C)c1NC1=NCCCS1 [Xylazine hydrochloride],1.2
NCC(O)c1ccc(O)cc1 (racemic) [(±)-Octopamine hydrochloride],0.866
